The full ranking holds about 33,000 sequences; the median of “E-score (-0.5 to 0.5)” is about -0.0014, and the highest 2% start at about 0.25. This is one part of the list.
molecular target: T1, Cad1 (UniProt P24813); experiment: PBM E-score (8-mer binding enrichment) (E-score (-0.5 to 0.5)); higher = stronger / more preferred TF binding; conditions: protein concentration: 100 nM; construct: GST-full length
T1 sequence: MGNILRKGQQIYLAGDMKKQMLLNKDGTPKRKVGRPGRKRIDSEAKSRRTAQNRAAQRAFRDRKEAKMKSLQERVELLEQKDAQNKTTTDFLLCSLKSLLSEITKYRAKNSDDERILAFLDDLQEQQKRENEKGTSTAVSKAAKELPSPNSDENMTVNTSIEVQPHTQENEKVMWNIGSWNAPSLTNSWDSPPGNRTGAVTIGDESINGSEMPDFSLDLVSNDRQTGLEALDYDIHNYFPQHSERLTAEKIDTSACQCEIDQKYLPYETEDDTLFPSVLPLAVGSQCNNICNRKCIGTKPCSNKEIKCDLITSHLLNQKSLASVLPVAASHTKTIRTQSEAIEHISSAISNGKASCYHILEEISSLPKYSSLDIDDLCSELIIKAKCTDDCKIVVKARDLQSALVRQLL
In short: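 Yeast transcription factors, full-length or as DNA-binding domains, were expressed with a GST tag using PURExpress in vitro transcription/translation. At about 100-200 nM they were applied to universal all-10-mer Agilent arrays, double-stranded by primer extension on fresh or once-stripped slides. Fluorescent anti-GST detected bound protein, and masliner normalised the scans. E-scores for ungapped eight-base words, pooled with reverse complements, came from the Universal PBM Analysis Suite.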

First: GAAAAACA
Second: CCCTGGCA
The “PBM E-score” value of the first is higher: -0.0722 for the first, -0.0951 for the second.

First: TAGGAGGA
Second: ACCTCAAA
The “PBM E-score” value of the first is lower: -0.212 for the first, -0.0553 for the second.

First: CACCCGCC
Second: AACACCCC
The “PBM E-score” value of the first is lower: 0.0605 for the first, 0.119 for the second.

Going from CTTACGGC to AAACCGGA, the “PBM E-score” value rises from -0.195 to 0.0985.

Compared with CCGTCCTC, AACCTTTA is higher in “PBM E-score” value: -0.193 for the first, -0.102 for the second.

Going from GCTTTGCA to CTGGCGCA, the “PBM E-score” value falls from -0.127 to -0.228.

Compared with AGAGTTAT, GACGAGTA is lower in “PBM E-score” value: 0.0358 for the first, 0.0138 for the second.

Compared with GACACAGC, CCCCCGCC is lower in “PBM E-score” value: 0.0664 for the first, -0.45 for the second.

Going from CCAAGTAA to GTGCCCAC, the “PBM E-score” value falls from 0.189 to -0.127.

Going from CTTTTAGA to TAATGAGA, the “PBM E-score” value rises from 0.0604 to 0.198.

First: CCTGGTCC
Second: CAAGTCTA
The “PBM E-score” value of the first is lower: -0.189 for the first, -0.0431 for the second.

Going from TAGGGCGA to GGCTCTCA, the “PBM E-score” value falls from -0.0704 to -0.184.

Going from CATACTTA to AATCTGAC, the “PBM E-score” value falls from 0.0592 to -0.0425.

Compared with AGTGATTA, CCCTCCGA is lower in “PBM E-score” value: 0.287 for the first, -0.00645 for the second.

Going from CGACTATC to ATAGAAAT, the “PBM E-score” value rises from 0.0661 to 0.138.

First: ATCCCCAA
Second: AACACGCT
The “PBM E-score” value of the first is higher: 0.0632 for the first, -0.0413 for the second.

Compared with AATCATAC, ACCGTCTA is lower in “PBM E-score” value: 0.0986 for the first, -0.0285 for the second.

Compared with GAGCACGC, AAAGTCGA is higher in “PBM E-score” value: -0.0437 for the first, -0.0137 for the second.

Compared with ACTCTAGC, CTTTTCTC is higher in “PBM E-score” value: -0.206 for the first, 0.00327 for the second.

Going from CTGTGTCC to TAGCCCTA, the “PBM E-score” value falls from -0.0935 to -0.125.

First: ACTCGGTA
Second: AAGATCAG
The “PBM E-score” value of the first is lower: -0.129 for the first, -0.0875 for the second.

Compared with CTCTGATA, CGCGCAGC is higher in “PBM E-score” value: 0.0204 for the first, 0.103 for the second.

Going from CCTATTCG to TGATGACA, the “PBM E-score” value rises from -0.131 to 0.138.

First: GCCCGCTA
Second: CGAATTAC
The “PBM E-score” value of the first is lower: -0.198 for the first, 0.0357 for the second.

Going from ACTTATGC to GAGATATC, the “PBM E-score” value rises from 0.0932 to 0.124.

Compared with CGCCGTAG, CAAAACTC is lower in “PBM E-score” value: 0.141 for the first, 0.0401 for the second.

Going from GGCGAACC to TCCCGCGA, the “PBM E-score” value rises from -0.0475 to 0.0875.

First: CACAAATA
Second: GCGTCGCA
The “PBM E-score” value of the first is higher: 0.259 for the first, -0.0396 for the second.

Compared with ACCAATAC, TTAACAAA is higher in “PBM E-score” value: -0.106 for the first, 0.0927 for the second.

First: CGATACAA
Second: AGAGAGCA
The “PBM E-score” value of the first is higher: 0.0958 for the first, -0.147 for the second.

First: ACAATACA
Second: AGGGTGCG
The “PBM E-score” value of the first is higher: 0.0445 for the first, -0.215 for the second.

First: CGGGTCCA
Second: CCGCGCGG
The “PBM E-score” value of the first is lower: -0.209 for the first, 0.417 for the second.

Going from CCACCAGC to GACGCCGA, the “PBM E-score” value rises from 0.0562 to 0.147.

Going from GCCGGGAC to AAGGCCAC, the “PBM E-score” value rises from -0.0972 to -0.0006.

Going from AGGAGCGG to ATGCCACA, the “PBM E-score” value rises from -0.293 to -0.0517.

Compared with GGAGGTAC, GAAACTGC is higher in “PBM E-score” value: -0.249 for the first, -0.218 for the second.

Compared with CGAGTTCC, TAATCATA is higher in “PBM E-score” value: 0.151 for the first, 0.226 for the second.

Going from CCCCATTC to ATAGGGCA, the “PBM E-score” value falls from -0.136 to -0.17.

Going from CCATACCG to AACAGCAT, the “PBM E-score” value falls from 0.124 to 0.0296.

First: GCATGACC
Second: GACCGTCA
The “PBM E-score” value of the first is lower: -0.103 for the first, -0.0457 for the second.

Compared with AGTTAACA, GTAAACAC is lower in “PBM E-score” value: 0.227 for the first, 0.0828 for the second.

First: CACTTTCA
Second: TATGAATA
The “PBM E-score” value of the first is lower: -0.0209 for the first, 0.0654 for the second.

Going from AGTACCTA to AGCGAACT, the “PBM E-score” value falls from 0.00584 to -0.0333.

First: GACATATC
Second: CAGAACAA
The “PBM E-score” value of the first is higher: 0.18 for the first, 0.171 for the second.

Compared with CCTCGAGC, AGCCAACG is lower in “PBM E-score” value: 0.193 for the first, -0.00425 for the second.

Going from ACGGGATA to ATAAGGTC, the “PBM E-score” value falls from 0.127 to 0.0363.

Compared with AGTACTTA, CCCAGGAG is lower in “PBM E-score” value: -0.0184 for the first, -0.311 for the second.

First: CCAGGGCA
Second: GTGCTAAA
The “PBM E-score” value of the first is lower: -0.112 for the first, 0.00617 for the second.

First: ACCACTAC
Second: CATAGCCG
The “PBM E-score” value of the first is lower: -0.0541 for the first, 0.161 for the second.

Compared with CCCTCGAA, GCAACTTA is higher in “PBM E-score” value: -0.239 for the first, 0.135 for the second.

Compared with GCTCCGCA, ATGCATTC is higher in “PBM E-score” value: -0.0229 for the first, 0.196 for the second.

Going from AATGACCA to CGTGCACA, the “PBM E-score” value rises from 0.0454 to 0.0473.

Compared with AGTTCGAC, TCGGAAAA is higher in “PBM E-score” value: 0.143 for the first, 0.224 for the second.

First: AGTCAAAC
Second: GCAAACAA
The “PBM E-score” value of the first is lower: -0.142 for the first, 0.108 for the second.

First: ATCTTTGC
Second: ACGTTTAA
The “PBM E-score” value of the first is higher: 0.208 for the first, 0.0129 for the second.

First: CTCGTTAA
Second: AATTCGGA
The “PBM E-score” value of the first is lower: -0.112 for the first, 0.12 for the second.

First: GGCGTCCA
Second: CAACGTTG
The “PBM E-score” value of the first is lower: 0.0032 for the first, 0.263 for the second.

First: CGGATCAG
Second: GATAAACA
The “PBM E-score” value of the first is higher: 0.119 for the first, 0.0427 for the second.

First: ACATAGGG
Second: GCTTTACA
The “PBM E-score” value of the first is lower: -0.125 for the first, 0.0167 for the second.

First: GGCAACTA
Second: ACGGGTAT
The “PBM E-score” value of the first is higher: 0.123 for the first, 0.00144 for the second.

Compared with CAACATCG, CAACCAGA is lower in “PBM E-score” value: 0.0708 for the first, 0.0341 for the second.

Compared with AGCCTTGG, CCCAGAAG is lower in “PBM E-score” value: -0.11 for the first, -0.215 for the second.

First: AAGTGTCC
Second: AGAATACT
The “PBM E-score” value of the first is lower: -0.104 for the first, 0.0925 for the second.

Going from AACTAGTA to CCCATTGA, the “PBM E-score” value falls from 0.102 to -0.0726.

Compared with GCCATCAC, ATGTATGA is higher in “PBM E-score” value: -0.0652 for the first, 0.195 for the second.

Going from GCACTCTA to CAACTAAA, the “PBM E-score” value rises from 0.044 to 0.102.

Compared with AACGAGTT, CAAGTAAC is higher in “PBM E-score” value: -0.105 for the first, -0.0682 for the second.

First: CGAGGCTA
Second: GGCGTCAC
The “PBM E-score” value of the first is higher: 0.00656 for the first, -0.0338 for the second.

First: GGGCCCTA
Second: AACGAAAC
The “PBM E-score” value of the first is lower: -0.161 for the first, 0.187 for the second.

Going from AAACTTTG to GCTCCAAC, the “PBM E-score” value falls from 0.0979 to -0.0475.

Going from GTAACCTA to AACATCTC, the “PBM E-score” value falls from 0.0751 to -0.0577.

Compared with CTGAGCCA, TGAAAGCA is higher in “PBM E-score” value: -0.0756 for the first, 0.222 for the second.

Compared with ACGATCAG, GCCATAAC is lower in “PBM E-score” value: -0.0172 for the first, -0.0858 for the second.

Compared with AAGCGCAC, CAGGCGCC is lower in “PBM E-score” value: 0.0605 for the first, 0.049 for the second.

First: GAGCACTC
Second: GGACACCA
The “PBM E-score” value of the first is lower: 0.00589 for the first, 0.0773 for the second.

Compared with CTTGATAC, ACGAGCTA is lower in “PBM E-score” value: 0.0152 for the first, -0.0731 for the second.

First: GAAATCCC
Second: GGTCTGGA
The “PBM E-score” value of the first is lower: -0.147 for the first, -0.144 for the second.

Going from ATGTTAAG to TACTCATA, the “PBM E-score” value falls from 0.0835 to 0.012.

First: CTTCCACA
Second: ATCGCCAC
The “PBM E-score” value of the first is lower: -0.0588 for the first, 0.182 for the second.

Going from AGGATTAC to CCTAAAAC, the “PBM E-score” value falls from 0.0918 to -0.104.

First: AGTGCACT
Second: CAGGTTGC
The “PBM E-score” value of the first is lower: 0.0106 for the first, 0.0768 for the second.

Compared with GGCCACCC, CCGGCTAG is higher in “PBM E-score” value: -0.135 for the first, -0.00514 for the second.

Compared with GGGAGAAA, GTGTATTA is higher in “PBM E-score” value: -0.151 for the first, 0.247 for the second.

Going from GACCTATA to ACTGAACT, the “PBM E-score” value falls from 0.137 to 0.0418.

Compared with AGGCTGCA, AGCGGCCG is higher in “PBM E-score” value: -0.008 for the first, 0.152 for the second.

Compared with CGGCTTCC, AACCCTCA is higher in “PBM E-score” value: -0.0843 for the first, 0.00268 for the second.

Reference: the supplement of paper PMC3334620
